Laboratory results reported in paper doi:10.1101/2023.06.03.543554 (bioRxiv, 2023).
These are yes or no findings as the source states them, for the method shown. In cells and extracts the contact can be indirect. Some entries that bind do so weakly or less than the wild type.

Protein sequences, listed by entry. Tags and fused reporters are not part of them.
UniProt P49407: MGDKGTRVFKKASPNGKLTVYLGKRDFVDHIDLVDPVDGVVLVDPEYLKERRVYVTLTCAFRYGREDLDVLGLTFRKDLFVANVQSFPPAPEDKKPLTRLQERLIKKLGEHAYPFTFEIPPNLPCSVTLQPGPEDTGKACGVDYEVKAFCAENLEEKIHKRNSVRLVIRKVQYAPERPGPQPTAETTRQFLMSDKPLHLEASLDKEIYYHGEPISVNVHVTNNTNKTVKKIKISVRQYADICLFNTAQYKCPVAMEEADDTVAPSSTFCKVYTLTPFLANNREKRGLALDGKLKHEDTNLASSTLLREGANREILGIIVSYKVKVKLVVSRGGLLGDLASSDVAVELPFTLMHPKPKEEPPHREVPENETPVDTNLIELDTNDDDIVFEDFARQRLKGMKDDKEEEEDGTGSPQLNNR

Target: T1, CMKLR1-WT-smBiT (human) (UniProt Q99788)
T1 sequence: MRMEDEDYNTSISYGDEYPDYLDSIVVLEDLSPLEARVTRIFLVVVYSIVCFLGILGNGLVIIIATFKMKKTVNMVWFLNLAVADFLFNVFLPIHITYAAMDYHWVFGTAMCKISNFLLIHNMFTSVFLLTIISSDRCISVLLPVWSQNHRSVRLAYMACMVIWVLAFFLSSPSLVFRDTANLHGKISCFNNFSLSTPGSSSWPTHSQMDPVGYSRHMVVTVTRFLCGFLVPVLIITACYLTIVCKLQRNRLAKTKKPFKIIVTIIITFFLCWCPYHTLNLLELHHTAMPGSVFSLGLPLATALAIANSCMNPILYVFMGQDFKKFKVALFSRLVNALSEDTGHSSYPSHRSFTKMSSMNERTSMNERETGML
Assay: split reporter

binding: binds
Substance: LgBiT-β-Arr1 (from UniProt P49407 1-418)
